Source: PubChem BioAssay AID2685 (National Center for Advancing Translational Sciences (NCATS), 2010)
Screen size: about 320,000 compounds; about 2,100 (0.66%) were called active. The inconclusive results got no clear call from the source; some entries with a clear call stand among them for comparison. Calls follow the shape of the dose curve; as a rule, active = well fitted inhibition curve with a large enough effect in the signal ratio, with a control signal flat (not every such curve was filed as active); inconclusive = small, poorly fitted or top-dose-only effect, or effect the other way, or a change in a side signal; inactive = flat fitted curve, though single readings scatter; the % refers to the signal ratio. Where the call is inconclusive, the potency comes from a doubtful curve fit.

Assay: qHTS Assay for Lipid Storage Modulators in Drosophila S3 Cells
Details: BODIPY lipid droplet fluorescence, 18-24 h, cells fed with added oleic acid; lipid storage change, negative = inhibition: at 46.1 µM (top of the series) unless noted
In short: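 Drosophila S3 cells got compounds at several concentrations plus oleic acid (400 uM solution). Laser-scanning cytometry with 488 nm excitation read lipid droplets at 500-530 nm and cells at 575-640 nm. Percent activity was relative to 20 uM Triacsin C.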
% is scaled to controls: 0 for no effect and ±100 for the full control effect; potency is read from the fitted curve at half-maximal effect.

SMILES | lipid storage change, negative = inhibition | Potency
COc1c(C)cc(C(=O)C2CCCN(C(=O)c3ccoc3)C2)cc1C (centres undefined) | inconclusive: -0.353% | –
COc1ccc(CNCC(O)(c2ccc(Cl)cc2)c2ccc(Cl)cc2)cc1 | inconclusive: 21.1% | –
CCOc1ccc(C2CC(c3cccc(C)c3)n3nc(N)nc3N2)cc1 (centres undefined) | inconclusive: 20.4% | –
CN(C)CCN(C(=O)c1ccc2c(c1)OCCO2)c1nc2c(Cl)cccc2s1 | inconclusive: 28.7% | –
Cc1ccc(S(=O)(=O)n2nc(OC(=O)C3CCCCC3)cc2N)cc1 | inconclusive: 8.24% | –
O=C(c1ccccc1)[C@@H]1[C@@H](C(=O)c2ccc(F)cc2)[C@@]2(C(=O)Nc3ccccc32)[C@H]2c3ccccc3C=CN12 | inconclusive: -20.3% | –
C#CCNC(=O)/C=C/c1ccc(C)cc1 | – | inconclusive: 9.2 µM [activator, partial curve]
Cc1cccc(CSc2ccc(-c3cccs3)nn2)c1 | inconclusive: -17.4% | –
O=S(=O)(Nc1ccc2c(c1)OCCO2)c1cccc2nsnc12 | – | inconclusive: 0.651 µM [falling, single point]
COc1cc(/C=c2/sc3nc(-c4ccccc4)c(-c4ccccc4)n3c2=O)cc(OC)c1OC | – | inconclusive: 25.9 µM [falling, single point]
CC1=CC(=C2N=C(c3ccccc3)OC2=O)C=C(C)O1 | inconclusive: 12.1% | –
O=C(NCCc1csc(-c2cccnc2)n1)c1cccs1 | inconclusive: -0.13% | –
CN(C)S(=O)(=O)c1cccc(NC(=O)Cc2ccc(Cl)cc2)c1 | inconclusive: -33.1% | –
Cn1ncc([N+](=O)[O-])c1C(=O)NC1CCCCC1 | inconclusive: 150% | –
COc1ccccc1O | inconclusive: -12% | –
Cc1sc2ncnc(N3CCC(C(=O)NNC(=O)c4ccc(Cl)cc4)CC3)c2c1C | inconclusive | –
CC(C)(C)c1ccc(C(=O)N/N=C/c2ccc(OCCCF)cc2)cc1 | inconclusive: -22.7% | –
O=C(c1cc(COc2c(F)cccc2F)on1)N1CCC(c2ccncc2)CC1 | – | inconclusive: 29.1 µM [falling, single point]
CCN(C1CCCCC1)S(=O)(=O)c1ccc(S(=O)(=O)NCCc2ccncc2)cc1 | – | inconclusive: 0.651 µM [activator, partial curve, poor fit]
CCOC(=O)C1CC2CC(C1)CN(C(=O)C1CCCCC1)C2 (centres undefined) | inconclusive: 48.4% | –
C=CCS/C(=N\n1cnc2ccccc2c1=O)N(CC)CC | inconclusive: 0.0474% | –
Fc1ccc(C2=Nn3c(Cc4ccccc4F)nnc3SC2)cc1 | – | inconclusive: 29.1 µM [activator, single point]
Cc1c(Br)ccc(NC(=O)c2ccccc2[N+](=O)[O-])c1C | inconclusive: -35.1% [cytotoxic] [at 0.00295 µM] | –
O=C(O)CNS(=O)(=O)c1ccc2c(c1)Cc1cc(S(=O)(=O)NCC(=O)O)ccc1-2 | inconclusive: -10.9% | –
O=C(COC(=O)c1ncc(Cl)c(Cl)c1Cl)NC1CCCCCC1 | inconclusive | –

Look-ups from the results shown.
`O=C(NCCc1csc(-c2cccnc2)n1)c1cccs1` – lipid storage change, negative = inhibition: inconclusive: -0.13%
`CCOC(=O)C1CC2CC(C1)CN(C(=O)C1CCCCC1)C2` (centres undefined) – lipid storage change, negative = inhibition: inconclusive: 48.4%
`O=S(=O)(Nc1ccc2c(c1)OCCO2)c1cccc2nsnc12` – Potency: inconclusive: 0.651 µM [falling, single point]
`CCN(C1CCCCC1)S(=O)(=O)c1ccc(S(=O)(=O)NCCc2ccncc2)cc1` – Potency: inconclusive: 0.651 µM [activator, partial curve, poor fit]
`Cn1ncc([N+](=O)[O-])c1C(=O)NC1CCCCC1` – lipid storage change, negative = inhibition: inconclusive: 150%

(continued)

SMILES | lipid storage change, negative = inhibition | Potency
CCOc1ccc(Cn2c3ccc(OC)cc3c3nc4ccccc4nc32)cc1 | – | inconclusive: 29.1 µM [activator, single point]
COC(=O)c1ccc(CNC(=O)c2ccc(S(=O)(=O)N(C)c3ccccc3OC)cc2)cc1 | – | inconclusive: 29.1 µM [falling, single point]
COc1ccc(C2NC(=O)NC(C)=C2[N+](=O)[O-])cc1 (centres undefined) | – | inconclusive: 29.1 µM [activator, single point]
CCOc1ccc(C(=O)Nc2cccc(-c3ccc4nncn4n3)c2)cc1 | inconclusive: 1.49% [at 9.22 µM] | –
O=C(Nc1nccs1)c1ccc(Br)cc1 | – | inconclusive: 16.4 µM [falling, single point]
CNC(=O)c1c(NC(=O)c2ccc(S(=O)(=O)N(C)c3ccccc3)cc2)sc2c1CCN(C(C)C)C2 | – | inconclusive: 5.62 µM [falling, single point]
O=C(CSc1cn(CCNC(=O)c2cccs2)c2ccccc12)NC1CCCCC1 | inconclusive: 21.8% | –
CC(OC(=O)CCCOc1ccccc1)C(=O)Nc1ccc(Cl)cn1 (centres undefined) | inconclusive: 45% [at 0.0737 µM] | –
COc1ccc(-c2nc(CN3CCC(c4ccccc4)CC3)c(C)o2)cc1OC | – | inconclusive: 29.1 µM [activator, single point]
Cc1onc(-c2c(Cl)cccc2Cl)c1C(=O)Nc1c(C)n(C)n(-c2ccccc2)c1=O | – | inconclusive: 29.1 µM [activator, single point]
CCN(CC)S(=O)(=O)c1ccc(OC)c(NC(=O)c2ccc(N3CCCC3=O)cc2)c1 | inconclusive: 4.3% | –
O=S(=O)(NCc1cccnc1)c1ccc(Cl)c2ccccc12 | – | inconclusive: 29.1 µM [falling, partial curve, poor fit]
COc1ccc(CCNS(=O)(=O)c2ccc3c(c2)NC(=O)CS3)cc1OC | inconclusive: 37.9% | –
CCC(C)(C)NC(=O)C(c1ccncc1)N(Cc1cccs1)C(=O)Cn1nnc2ccccc21 (centres undefined) | inconclusive: 46.2% | –
CCn1c(=S)sc2c(=O)n(-c3ccccc3)c(SC)nc21 | – | inconclusive: 3.66 µM [falling, single point]
CN(CCN1CCOCC1)Cc1nc(-c2ccc3c(c2)OCO3)no1 | inconclusive: 39.9% | –
CCc1nnc(NC(=O)CCN(c2ccc(C)cc2)S(=O)(=O)c2ccccc2)s1 | – | inconclusive: 0.82 µM [falling, single point]
CC1(C)Cc2c(sc3[nH]c(=S)n(Cc4ccco4)c(=O)c23)CO1 | – | inconclusive: 2.31 µM [activator, partial curve, poor fit]
O=C1CSC(=S)N1/N=C/C=C/c1ccccc1 | inconclusive: 0.036% | –
c1cc2nncn2nc1N1CCCC1 | inconclusive: -1.29% | –
Cc1cccn2c(=O)c3cc(S(=O)(=O)c4ccccc4)c(=N)n(Cc4ccc(F)cc4)c3nc12 | – | inconclusive: 32.6 µM [activator, single point]
COc1ccccc1NC(=O)C1CCCCN1S(=O)(=O)c1ccc(F)cc1 (centres undefined) | inconclusive: 17.1% | –
Cc1ccc(-n2nc3c(c2NC(=O)c2c(F)cccc2Cl)CS(=O)(=O)C3)cc1C | inconclusive: -7.53% | –
O=C(NC1CS(=O)(=O)CC1NCc1ccccc1)c1ccccc1 (centres undefined) | – | inconclusive: 3.66 µM [activator, full curve]
COc1ccc(NC(C)=[N+](C)CCNS(=O)(=O)c2ccc(Cl)cc2)cc1 | inactive | –

SMILES | lipid storage change, negative = inhibition | Potency
COc1ccc(C(=O)Nc2ccc(NS(=O)(=O)c3ccccc3)cc2)cc1OC | – | inconclusive: 0.092 µM [activator, full curve, poor fit]
CCOC(=O)C1(S(=O)(=O)c2ccc(Cl)cc2)CCN(Cc2ccc(Cl)cc2)CC1 | inconclusive: 20.2% | –
COc1ccccc1N1CC(C(=O)OCC(=O)Nc2cc(C)on2)CC1=O (centres undefined) | inconclusive | –
Cc1csc(=O)n1CC(=O)OCc1nnc(-c2ccc([N+](=O)[O-])cc2)o1 | inconclusive: 8.81% | –
COc1ccc(CC(=O)O/N=C(\N)c2ccncc2)cc1 | inconclusive: 12.7% | –
O=C(NCCNc1ccnc2cc(Cl)ccc12)c1ccccc1F | – | inconclusive: 4.61 µM [falling, partial curve]
Cc1cccc(-n2c(C)cc(/C=N\NC(=O)c3ccco3)c2C)c1 | inconclusive: -37.3% [at 0.369 µM] | –
CCCCn1c(-c2cccc(C)c2)nc2cc3[nH]c(=O)c(C(C)C)nc3cc21 | inactive | –
CCc1cccc(C)c1NC(=O)COC(=O)Cc1ccsc1 | inconclusive: 9.6% | –
O=C(/C=C/c1ccc2c(c1)OCO2)Nc1cc(S(=O)(=O)N2CCOCC2)ccc1N1CCOCC1 | – | inconclusive: 0.0326 µM [activator, full curve, poor fit]
CC(=O)Nc1ccc(S(=O)(=O)Nc2nnc(C(C)(C)C)s2)cc1 | inconclusive: 71.7% | –
COc1ccc(CC(NC(C)=O)C(=O)NC2CCN(S(=O)(=O)c3ccc(NC(C)=O)cc3)CC2)c(OC)c1 (centres undefined) | – | inconclusive: 25.9 µM [activator, partial curve]
Cc1nnc2c(-c3ccccc3)nc3ccccc3n12 | – | inconclusive: 2.31 µM [activator, partial curve]
O=C(/C(=C/O)N=Nc1ccccc1)c1ccc(Cl)cc1 | inconclusive: -178% | –
CCOC(=O)c1ccc(NC(=S)N2CCN(CCN=CC3=C(O)CC(C)(C)CC3=O)CC2)cc1 | – | inconclusive: 29.1 µM [falling, single point]
O=C(O)COc1ccc2c(c1)OCCO2 | inconclusive: 98.5% | –
COC(=O)c1sccc1NC(=O)COc1ccc(F)cc1Cl | inactive | –
CCn1cc(C(=O)O)c(=O)c2cc(F)c(N3CCN(C(=S)NC(=O)c4ccc(Br)cc4)CC3)cc21 | inconclusive: -32.2% | –
O=C(Nc1nc(-c2ccc(-c3ccccc3)cc2)cs1)C1CCCO1 (centres undefined) | – | inconclusive: 16.4 µM [activator, partial curve, poor fit]
CCCCn1c(N)c(N(CCOC)C(=O)c2cc3c(s2)CCC(C)C3)c(=O)[nH]c1=O (centres undefined) | inconclusive | –
COc1ccc(NC(=O)Nc2nnc(-c3ccccc3F)s2)cc1 | inconclusive: 18.6% | –
Cn1nccc1NC(=O)Nc1cccc(Cl)c1 | inconclusive: -25.5% | –
O=C(CN1C(=O)C2C3C=CC(C3)C2C1=O)Nc1nc(SCc2ccc(Cl)cc2)n[nH]1 (centres undefined) | inconclusive: 47.1% | –
CC(C)(C)NC(=O)CSc1ncnc2c1nnn2Cc1ccccc1Cl | – | inconclusive: 29.1 µM [cytotoxic, single point]
